These are yes or no findings as the source states them, for the method shown. A result given as binding can be weak or reduced; the word gives no strength. Tags and fused reporters may be left off the sequences shown.

The target in the assay is T1, StrepTagII-protein S16-His10 (S. lividans) (UniProt O86868).
T1 sequence: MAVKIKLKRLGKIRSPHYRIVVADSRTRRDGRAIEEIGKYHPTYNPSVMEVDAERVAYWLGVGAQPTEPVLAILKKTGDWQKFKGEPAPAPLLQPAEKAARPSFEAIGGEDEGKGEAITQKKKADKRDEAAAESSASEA
Kind of assay: pull-down; coelution assay: StrepTagII-protein S16-His10 (0.2 mg/mL) mixed with the SLP protein (SlpS-His6 0.1 mg/mL) in 20 mM HEPES-NaOH pH 7.4, 5 mM MgCl2, 150 mM NaCl, 10% glycerol, room temperature 15 min; captured on a streptavidin column, washed with PBS, eluted with 0.1 M glycine pH 2.5; Western blot (anti-His6, streptavidin-HRP); both purified. (Immunoblotting shows a protein as a band on a membrane.)
As to SlpS-His6 (S. lividans), the binding entry is “binds”.
For “recombinant Slp5 (coelution assay) (S. lividans)”, the binding entry is recorded as “no binding”.
For “recombinant Slp7 (coelution assay) (S. lividans)”, the binding result was “no binding”.
As for “recombinant Slp8 (coelution assay) (S. lividans)”, the binding result is reported as “no binding”.
